Chains of the proteins cited; added tags and fusions are not shown. Lines headed by an entry give the natural chain unless they say otherwise; changes in a name come on top.
UniProt P35462, whole entry: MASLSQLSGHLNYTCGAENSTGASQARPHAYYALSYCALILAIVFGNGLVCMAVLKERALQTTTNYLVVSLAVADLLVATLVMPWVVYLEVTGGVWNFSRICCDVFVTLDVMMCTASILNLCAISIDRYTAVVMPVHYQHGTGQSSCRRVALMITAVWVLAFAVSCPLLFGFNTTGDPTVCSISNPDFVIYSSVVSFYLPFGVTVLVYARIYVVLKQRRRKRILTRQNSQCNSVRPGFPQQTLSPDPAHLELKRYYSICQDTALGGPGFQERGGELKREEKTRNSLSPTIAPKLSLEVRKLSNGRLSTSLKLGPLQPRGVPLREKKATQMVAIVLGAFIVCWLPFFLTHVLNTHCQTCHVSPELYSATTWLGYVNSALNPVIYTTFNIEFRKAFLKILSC

According to publication PMC7503597 (International Journal of Molecular Sciences, 2020):

Target: T1, wild-type D3R (hD3R) (Homo sapiens, UniProt P35462)
T1 construct: gene DRD3; full-length with N-terminal murine 5-HT3A signal peptide and FLAG tag, called wild-type
Test: biochemical
Format: binding

O=c1[nH]c2ccccc2n1CCCN1CCC(n2c(=O)[nH]c3cc(Cl)ccc32)CC1 [domperidone] showed a Ki of 1.1 nM.
